# Some of the results follow.
# Amino acid sequences for entries named in this document (tags omitted).
# UniProt Q0JBA9, entry or part of it: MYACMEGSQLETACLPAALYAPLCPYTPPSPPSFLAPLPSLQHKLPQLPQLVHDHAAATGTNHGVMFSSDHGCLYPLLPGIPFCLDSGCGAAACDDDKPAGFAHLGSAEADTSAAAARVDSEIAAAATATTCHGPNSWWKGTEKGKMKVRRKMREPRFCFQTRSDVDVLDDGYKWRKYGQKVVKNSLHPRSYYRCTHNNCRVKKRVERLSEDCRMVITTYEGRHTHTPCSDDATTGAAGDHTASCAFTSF
# Molecular target: OsWRKY34 (Oryza sativa, UniProt Q0JBA9 1-250)
# Assay: protein-binding microarray (RPBM); PBS, 2% BSA, 51.3 ng/ul salmon testes DNA, 50 uM zinc acetate, 200 nM TF, 25 C, 1 h; high values mean tight binding
# Details: protein: recombinant; tags: N-terminal polyhistidine and DsRed monomer fusion (pET32a); label: CyDye5-dUTP incorporated in the synthesized complementary strand; 3' TTTTT single-stranded linker to array surface; dsDNA, one strand shown
# How it was run: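 Binding signal is reported as fluorescence intensity per feature (arbitrary units) from an Axon 4000B scanner. Incubation used 200 nM of each Ni–NTA-purified, N-terminally polyhistidine- and DsRed-fused transcription factor from E. coli BL21-CodonPlus on a double-stranded custom Agilent array for 1 h at 25 °C, with 50 µM zinc acetate in the buffer, followed by washing.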
row,Sequence,binding signal
1,TCCGCTGCCTTCGATTCTTGGTAAGCCCCTAATTCTCCTTCGGAGTCACCTAGTGCAG,8420 fluorescence intensity (a.u.)
2,TGGATTTAGGATGTTACTTTGATTTGGGGATTTGGGGTTTCGGAGTCACCTAGTGCAG,17200 fluorescence intensity (a.u.)
3,ATACTTCTCTCTCTCTCTTTCATTTTCAACTATAGAAATTCGGAGTCACCTAGTGCAG,8710 fluorescence intensity (a.u.)
4,CCTCTTCACCGACTTGCTTCTCGGCTTCGTCTTGGATTTGCGGAGTCACCTAGTGCAG,14900 fluorescence intensity (a.u.)
5,ATGTTTACGTGCAACACATTATGGTTCTCTTCTCTGTAAACGGAGTCACCTAGTGCAG,8230 fluorescence intensity (a.u.)
6,CTCCCGCCGCTGTCTCCGCCCCTCCTCCTGCCGTCGTCCCCGGAGTCACCTAGTGCAG,8140 fluorescence intensity (a.u.)
7,CCGTTGGCCGCCCATCCTCGTCTCCCATTTGCTGATCAACCGGAGTCACCTAGTGCAG,9880 fluorescence intensity (a.u.)
8,CACACGCTCTCAACTCACTCCCGCTCAACACAGCGCTCACCGGAGTCACCTAGTGCAG,11000 fluorescence intensity (a.u.)
9,AATATGTAGCCCGCTGATTATCTCTCTCTCTTTTTTTTTTCGGAGTCACCTAGTGCAG,9170 fluorescence intensity (a.u.)
10,CCTCGTTTGGAGGTTGCAACTTTTTAATTTTCTGTTAGCACGGAGTCACCTAGTGCAG,8960 fluorescence intensity (a.u.)
11,AAAACCCCAACTTTTTATTTCCTGCCGTTTTCTTTTTCTTCGGAGTCACCTAGTGCAG,8100 fluorescence intensity (a.u.)
12,TTTGTCATACCGGATCTGTCCTTATTTTATGGTTGTTCAACGGAGTCACCTAGTGCAG,9560 fluorescence intensity (a.u.)
13,TCATATCATTCCTACTCAACCATAGAGCCCAACATATAGCCGGAGTCACCTAGTGCAG,9290 fluorescence intensity (a.u.)
14,CCCATCTCCACCCGTCCATTTTTCCAACGTTCTAGATCCACGGAGTCACCTAGTGCAG,14100 fluorescence intensity (a.u.)
15,TTGCCCTACACGAACGGGTCCGGACCTATTTCAGCTGTACCGGAGTCACCTAGTGCAG,8540 fluorescence intensity (a.u.)
16,CTCGGTAGCTAATACTACTTTACTTTATTACTGTCGTTTTCGGAGTCACCTAGTGCAG,10200 fluorescence intensity (a.u.)
17,GCCATCCTTGTCTCAACTACTCGTCAAGTTGCTCCACATGCGGAGTCACCTAGTGCAG,9050 fluorescence intensity (a.u.)
18,ACTCTGAGGTCCTTTCTCTATTGGACCCATCATCATCAGCCGGAGTCACCTAGTGCAG,9130 fluorescence intensity (a.u.)
19,ACTCGATCGAGAGCTCCAACCACTCTCAAAATTTACACCTCGGAGTCACCTAGTGCAG,8510 fluorescence intensity (a.u.)
20,AAACCCCTTCAGTTAATCTGTTCGTTGACCAAGTTTAATTCGGAGTCACCTAGTGCAG,13300 fluorescence intensity (a.u.)
21,GAGAGTTAGGGGTTGAGATATCCGGTTCTGTGGTTTGGGGCGGAGTCACCTAGTGCAG,9020 fluorescence intensity (a.u.)

row,Sequence,binding signal
1,AACTCGATCTCTGCCTCCGACTTCGCTTCAATCTAATCTTCGGAGTCACCTAGTGCAG,12900 fluorescence intensity (a.u.)
2,ATCATGTGTGTTCTCTCTCTCCCTCTCTCTGTTTTTTGGGCGGAGTCACCTAGTGCAG,9200 fluorescence intensity (a.u.)
3,CCGCCCACCCGCCTTAGCATCCACCGCCTTTGCCTATGCGCGGAGTCACCTAGTGCAG,16300 fluorescence intensity (a.u.)
4,ACTACCACCTTCTCTTGCCGTGTTTAATCCGTCCCCGCTCCGGAGTCACCTAGTGCAG,9690 fluorescence intensity (a.u.)
5,AGGGATTTTAATTGGATGCGATACGTCTGGACAGGCTTCACGGAGTCACCTAGTGCAG,8060 fluorescence intensity (a.u.)
6,ACAACATTTAAAACTACAAAGACTGCAGATCTACATATTTCGGAGTCACCTAGTGCAG,8260 fluorescence intensity (a.u.)
7,AAGTAGGGTTAGGTTCATAGACCATAGATGCGCGGATCATCGGAGTCACCTAGTGCAG,9550 fluorescence intensity (a.u.)
8,GACTTTGCTTTTTCTTTTTCTTCGATTAATGTGAGAATTTCGGAGTCACCTAGTGCAG,11200 fluorescence intensity (a.u.)
9,TAGTTGTGGCTTTGGGTGGTTGTTCTATTTTTGGGACAAACGGAGTCACCTAGTGCAG,8830 fluorescence intensity (a.u.)
10,CCGGTCACCATCGCCGTCATCACCGCGCCCCTCGATCCGACGGAGTCACCTAGTGCAG,8610 fluorescence intensity (a.u.)
11,TGTACTACGAACATGTTGCTCCTGTTATACATTAGTTTCCCGGAGTCACCTAGTGCAG,8310 fluorescence intensity (a.u.)
12,TCCTCTTGCAAAAAAAACACACACACACACGCACACAACTCGGAGTCACCTAGTGCAG,10200 fluorescence intensity (a.u.)
13,GCCCACACCGCCGCAATATAAACCCGTCCTCATCACACACCGGAGTCACCTAGTGCAG,11500 fluorescence intensity (a.u.)
14,AATAGAGTGCATATCAGTTCTTGCTACCATACCCTCTTTTCGGAGTCACCTAGTGCAG,9490 fluorescence intensity (a.u.)
15,TTCTGCTAGTTTGGACATCTTTTTTTGCTTTGTTCCATGACGGAGTCACCTAGTGCAG,9670 fluorescence intensity (a.u.)
16,AATCCATTATCCATTCCTTTCCTTTCCGGTGACATGTAGTCGGAGTCACCTAGTGCAG,8270 fluorescence intensity (a.u.)
17,ATTCGTCGGGGAATCGCAATTTTGTGGGTTTGGGGCTGACCGGAGTCACCTAGTGCAG,10000 fluorescence intensity (a.u.)
18,CCTAAATGTTTGACACCGTTGACTTTTTTAAACATATTTGCGGAGTCACCTAGTGCAG,33000 fluorescence intensity (a.u.)
19,GTTCAGGATGCTGCTGCGTCTTCCGTGCGCGCGCGGCCCCCGGAGTCACCTAGTGCAG,8360 fluorescence intensity (a.u.)
20,GCTTTGGTGTTTTAATTTCTCTCTATTTTGCTCTGCTGCTCGGAGTCACCTAGTGCAG,11100 fluorescence intensity (a.u.)
21,ACCCTACCCTTGCTGCGCTGCCCATTTCCGTCGCCGCTGTCGGAGTCACCTAGTGCAG,9610 fluorescence intensity (a.u.)

# 2 entries from above, with bars between the fields.
row | Sequence | binding signal
16 | AATCCATTATCCATTCCTTTCCTTTCCGGTGACATGTAGTCGGAGTCACCTAGTGCAG | 8270 fluorescence intensity (a.u.)
17 | ATTCGTCGGGGAATCGCAATTTTGTGGGTTTGGGGCTGACCGGAGTCACCTAGTGCAG | 10000 fluorescence intensity (a.u.)

# Reference: publication PMC7819943, “Rice protein-binding microarrays: a tool to detect cis-acting elements near promoter regions in rice”
